Assay: Penetration of IPBC, Propiconazole and Tebuconazole (alone or with DCOIT) into pressure treated wood
Conditions: single active, 1500 ppm treatment solution, polymer G 5:1, 0.03% 15S40

Row | Structure (SMILES) | % retained @ 10 mm [%]
1 | CC(C)(C)C(O)(CCc1ccc(Cl)cc1)Cn1cncn1 (racemic) [Tebuconazole, (RS)-1-p-chlorophenyl-4,4-dimethyl-3-(1H-1,2,4-triazol-1-ylmethyl)pentan-3-ol] | 46
2 | CCCCNC(=O)OCC#CI [IPBC, N n-butyl iodopropargyl carbamate] | 77
3 | CCCC1COC(Cn2cncn2)(c2ccc(Cl)cc2Cl)O1 (stereo not drawn) [Propiconazole, cis-trans-1-[2-(2,4-dichlorophenyl)-4-propyl-1,3-dioxolan-2-ylmethyl]-1H-1,2,4-triazole] | 42

— patent US7740906B2, “Wood preservatives” (Rohm and Haas Company, priority 2005, dated 2010)
